Experimental data: PubChem BioAssay AID686937 (Drosophila RNAi Screening Center, 2013)
In all, the deposit lists about 23,000 reagents; this is a random part of those with a known target gene and a result. 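Reduced-secretion tags in replicate 1 do not always agree with the z-scores; no criterion for assigning the tags was given.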 Names joined by + are all predicted targets of the reagent. The record does not give: the amount of reagent.

Test: 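Genes whose loss weakens secretory pathway function in fly cells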 (primary screen)
Cell system: Drosophila S2 cells expressing secreted horseradish peroxidase
Reagent: long dsRNA against Drosophila genes
Duration: about 5.5 days (5 days dsRNA, then 12 h reporter induction)
Challenge: reporter expression induced after 5 days of dsRNA, read 12 h later; inducer not stated
Measured: 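Chemiluminescent measurement of peroxidase in the medium 12 h after reporter induction, following 5 days of dsRNA, given as a z-score per plate; higher means more secretion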
Direction: z-score: higher = more reporter secreted into medium

The first 4 entries, to show the layout:
gene	dsRNA	z-score, replicate 1	z-score, replicate 2	z-score, replicate 3	z-score, replicate 4	phenotype, replicate 1
CG31464	DRSC14345	-0.3	0.11			
CG2930	DRSC17730	-0.01	-0.09			
pkaap	DRSC01925	0	0.1			
wek (weckle)	DRSC03561	0.19	0.24			

The listing, repeating the preview:
gene	dsRNA	z-score, replicate 1	z-score, replicate 2	z-score, replicate 3	z-score, replicate 4	phenotype, replicate 1
CG31464	DRSC14345	-0.3	0.11			
CG2930	DRSC17730	-0.01	-0.09			
pkaap	DRSC01925	0	0.1			
wek (weckle)	DRSC03561	0.19	0.24			
Amy-d + Amy-p	DRSC21242	0.56	0.3			
CG4297	DRSC00651	0.22	0.22			
Pex12 (Peroxin 12)	DRSC00622	-0.37	0.04			
Cyp4ae1 (Cytochrome P450 4ae1)	DRSC18455	0.16	-0.01			
Cpr72Ec (Cuticular protein 72Ec)	DRSC10449	0.4	0.51			
CG8042	DRSC09676	0.32	0.3			
PGRP-LD + Cralbp + Pmi	DRSC09743	-0.01	0.12			
spd-2 (spindle defective 2)	DRSC09682	0.31	0.27			
CG9593	DRSC16508	-0.26	0.16			
Unc50 (Unc50 RNA binding protein)	DRSC16561	-0.35	-0.61			
RpS5a (Ribosomal protein S5a)	DRSC20282	-1.66	-2.72			reduced secretion
BEAF-32 (Boundary element-associated factor of 32kD)	DRSC05927	0.28	0.32			
bigmax	DRSC15481	0.33	0.58			
vvl (ventral veins lacking)	DRSC11409	0.22	0.12			
plu (plutonium)	DRSC07665	-0.91	-0.06			
Mics1 (Mitochondrial morphology and cristae structure 1)	DRSC12537	0.13	0.11			
CG10799	DRSC06002	0.23	0.01			
org-1 (optomotor-blind-related-gene-1)	DRSC18810	-2.05	-1.93			reduced secretion
Zip71B (Zinc/iron regulated transporter-related protein 71B)	DRSC09686	-0.17	0.09			
CAH4 (Carbonic anhydrase 4)	DRSC22433	0.34	0.11			
CG4477	DRSC10425	0.53	0.58			
CG13623	DRSC14625	0.32	-0.25			
CG34181	DRSC01071	-1.12	-0.42			
CG14696	DRSC14919	0.1	0.35			
CG9826	DRSC04570	0.24	0.39			
Enoph (Enolase-phosphatase)	DRSC12201	0.49	0.56			
Naprt (Nicotinate phosphoribosyltransferase)	DRSC00630	0	-0.07			
grass (Gram-positive Specific Serine protease)	DRSC15911	0.28	0.28			
CG4218	DRSC01939	-0.54	0.04			
CG9135	DRSC03144	0.07	0.11			
holn1 (hole-in-one)	DRSC02827	0.21	0.15			
holn1 (hole-in-one)	DRSC22822	0.65	-0.12			
Arl5 (ADP-ribosylation factor-like 5)	DRSC10785	0.26	0.21			
CG7755	DRSC07040	0.57	0.34			
Sec31 (Secretory 31)	DRSC07131	0.09	0.1			
CG1640	DRSC19750	0.12	0.2			
CG18480	DRSC01957	0.22	0.35			
CG31140	DRSC13649	0.64	-0.39			
CG31140	DRSC14603	0.3	0.13			
CG31140	DRSC15904	0.28	0.31			
Tmem43 (Transmembrane protein 43)	DRSC10964	0.13	-0.07			
Zif (Zinc-finger protein)	DRSC12514	-1.06	-1.23			
pths (porthos)	DRSC03171	-1.76	-0.56			reduced secretion
CG7974	DRSC08607	-1.61	-0.6			reduced secretion
Dlic (Dynein light intermediate chain)	DRSC19824	-0.2	0.34			
CG34161	DRSC01132	0.13	-0.05			
Hmr (Hybrid male rescue)	DRSC17740	-0.13	0.02			
obst-J (obstructor-J)	DRSC10821	0.31	0.27			
CG1958	DRSC18196	0.2	0.52			
CG30403	DRSC03889	0.66	-0.95	-0.36	-0.02	
Pvf3 (PDGF- and VEGF-related factor 3)	DRSC02284	0.17	0.14			
Pvf3 (PDGF- and VEGF-related factor 3)	DRSC02285	0.21	0.34			
Pvf3 (PDGF- and VEGF-related factor 3)	DRSC02286	0.99	0.48			
Pvf3 (PDGF- and VEGF-related factor 3)	DRSC02751	0.15	0.13			
CG11403	DRSC18532	0.2	0.19			
Rab3GAP1 (RAB3 GTPase activating protein subunit 1)	DRSC00291	0.21	0.02			
Rab3GAP1 (RAB3 GTPase activating protein subunit 1)	DRSC00703	0.08	0.17			
Actbeta (Activin-beta)	DRSC17185	0.51	0.63			
Actbeta (Activin-beta)	DRSC17217	0.26	0.27			
CG34236	DRSC05435	-0.06	0.18			
CG16989	DRSC18535	0.15	0.08			
ND-20 (NADH dehydrogenase (ubiquinone) 20 kDa subunit)	DRSC20164	-7.69	0.19			reduced secretion
CG42518 + MED9	DRSC06917	0.16	0.32			
CG7453	DRSC20046	0.32	0.41			
Mybbp1A (MYB binding protein 1a)	DRSC18788	0.2	-0.21			
beat-Va (beaten path Va)	DRSC14192	-0.1	-0.29			
CG11498	DRSC14315	-0.02	0.23			
ppk26 (pickpocket 26)	DRSC10991	0.28	0.09			
hwt (heavyweight)	DRSC19386	-1.75	0.14			
hwt (heavyweight)	DRSC19695	0.47	0.69			
Asciz (ASCIZ zinc finger protein)	DRSC08421	-0.57	-0.34			
Cad96Ca (Cadherin 96Ca)	DRSC14220	0.18	0.24			
Cad96Ca (Cadherin 96Ca)	DRSC16693	0.18	0.29			
CG6978	DRSC18409	0.34	0.16			
CG12691	DRSC17880	0.29	0.34			
AGO2 (Argonaute 2)	DRSC09999	-0.33	-0.63			
AGO2 (Argonaute 2)	DRSC10847	-2.27	0.35			reduced secretion
ais (aramis)	DRSC10523	0.3	0.39			
